In assay [1] the target is soluble form of FcγRI (UniProt P12314). Put plainly: flow cytometry on pJG717-transformed tumor cells with soluble FcγRI.
The target is the same in assay [2]. Description: flow cytometry on pJG717-transformed 653 and NSO cells with soluble FcγRI.

Sequences of proteins named here, by UniProt entry; tags and fusion partners are left off. Residues count along the entry.
UniProt P12314, residues 16-292: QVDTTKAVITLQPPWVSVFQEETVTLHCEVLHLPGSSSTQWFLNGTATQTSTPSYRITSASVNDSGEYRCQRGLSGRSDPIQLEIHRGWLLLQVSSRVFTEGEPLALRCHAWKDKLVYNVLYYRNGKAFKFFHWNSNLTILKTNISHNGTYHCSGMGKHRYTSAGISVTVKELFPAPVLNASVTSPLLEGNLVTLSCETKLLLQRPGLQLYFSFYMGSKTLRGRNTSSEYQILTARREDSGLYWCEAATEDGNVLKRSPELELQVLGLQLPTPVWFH

Data on one molecule can be found in US20030039641A1.

Results are given in words; binding and its absence hold for the method and conditions named. Some results given as binding are weak or reduced against the parent protein; the word gives no strength. Where a sequence is shown, tags or fusion partners need not be part of it.

B1: H22-TM fusion protein (single chain Fv fragment of humanized anti-FcγRI antibody H22 fused to the platelet derived growth factor receptor transmembrane … (scFv)
chain: YPYDVPDYAGAQPARSDIQLTQSPSSLSASVGDRVTITCKSSQSVLYSSNQKNYLAWYQQKPGKAPKLLIYWASTRESGVPSRFSGSGSGTDFTFTISSLQPEDIATYYCHQYLSSWTFGQGTKVEIKSSGGGGSGGGGSGGGGSEVQLVESGGGVVQPGRSLRLSCSSSGFIFSDNYMYWVRQAPGKGLEWVATISDGGSYTYYPDSVKGRFTISRDNSKNTLFLQMDSLRPEDTGVYFCARGYYRYEGAMDYWGQGTPVTVSSPRLQVDEQKLISEEDLNAVGQDTQEVIVVPHSLPFKVVVISAILALVVLTIISLIILIMLWQKKPR
As to B1, the binding result with soluble form of FcγRI [1] and with soluble form of FcγRI [2] was “binds” in each case.
